In publication PMC9098222 one finds binding data, which are given here for two molecules.

Chains of the proteins cited; added tags and fusions are not shown.
UniProt O00459: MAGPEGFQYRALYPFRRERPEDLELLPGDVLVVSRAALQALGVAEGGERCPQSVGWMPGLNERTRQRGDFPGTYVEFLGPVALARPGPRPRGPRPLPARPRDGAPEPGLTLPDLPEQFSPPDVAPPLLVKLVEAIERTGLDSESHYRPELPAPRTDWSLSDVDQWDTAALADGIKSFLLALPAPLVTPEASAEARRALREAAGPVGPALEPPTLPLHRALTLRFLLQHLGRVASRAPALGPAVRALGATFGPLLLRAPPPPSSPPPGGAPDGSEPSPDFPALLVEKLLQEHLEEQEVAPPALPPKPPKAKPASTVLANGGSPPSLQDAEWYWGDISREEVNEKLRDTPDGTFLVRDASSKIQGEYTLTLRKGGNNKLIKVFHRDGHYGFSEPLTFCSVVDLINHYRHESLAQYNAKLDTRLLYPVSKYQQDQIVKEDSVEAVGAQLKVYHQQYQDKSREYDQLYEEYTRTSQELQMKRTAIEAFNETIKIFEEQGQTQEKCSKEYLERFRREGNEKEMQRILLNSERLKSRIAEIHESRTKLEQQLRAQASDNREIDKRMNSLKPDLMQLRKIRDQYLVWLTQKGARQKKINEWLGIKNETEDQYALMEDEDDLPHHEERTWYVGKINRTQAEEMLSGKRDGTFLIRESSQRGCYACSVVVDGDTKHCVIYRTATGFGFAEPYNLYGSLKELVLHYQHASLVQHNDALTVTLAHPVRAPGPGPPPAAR

The target of the assay is T1, IRS4 (WT)-PafA (human) (UniProt O14654).
T1 sequence: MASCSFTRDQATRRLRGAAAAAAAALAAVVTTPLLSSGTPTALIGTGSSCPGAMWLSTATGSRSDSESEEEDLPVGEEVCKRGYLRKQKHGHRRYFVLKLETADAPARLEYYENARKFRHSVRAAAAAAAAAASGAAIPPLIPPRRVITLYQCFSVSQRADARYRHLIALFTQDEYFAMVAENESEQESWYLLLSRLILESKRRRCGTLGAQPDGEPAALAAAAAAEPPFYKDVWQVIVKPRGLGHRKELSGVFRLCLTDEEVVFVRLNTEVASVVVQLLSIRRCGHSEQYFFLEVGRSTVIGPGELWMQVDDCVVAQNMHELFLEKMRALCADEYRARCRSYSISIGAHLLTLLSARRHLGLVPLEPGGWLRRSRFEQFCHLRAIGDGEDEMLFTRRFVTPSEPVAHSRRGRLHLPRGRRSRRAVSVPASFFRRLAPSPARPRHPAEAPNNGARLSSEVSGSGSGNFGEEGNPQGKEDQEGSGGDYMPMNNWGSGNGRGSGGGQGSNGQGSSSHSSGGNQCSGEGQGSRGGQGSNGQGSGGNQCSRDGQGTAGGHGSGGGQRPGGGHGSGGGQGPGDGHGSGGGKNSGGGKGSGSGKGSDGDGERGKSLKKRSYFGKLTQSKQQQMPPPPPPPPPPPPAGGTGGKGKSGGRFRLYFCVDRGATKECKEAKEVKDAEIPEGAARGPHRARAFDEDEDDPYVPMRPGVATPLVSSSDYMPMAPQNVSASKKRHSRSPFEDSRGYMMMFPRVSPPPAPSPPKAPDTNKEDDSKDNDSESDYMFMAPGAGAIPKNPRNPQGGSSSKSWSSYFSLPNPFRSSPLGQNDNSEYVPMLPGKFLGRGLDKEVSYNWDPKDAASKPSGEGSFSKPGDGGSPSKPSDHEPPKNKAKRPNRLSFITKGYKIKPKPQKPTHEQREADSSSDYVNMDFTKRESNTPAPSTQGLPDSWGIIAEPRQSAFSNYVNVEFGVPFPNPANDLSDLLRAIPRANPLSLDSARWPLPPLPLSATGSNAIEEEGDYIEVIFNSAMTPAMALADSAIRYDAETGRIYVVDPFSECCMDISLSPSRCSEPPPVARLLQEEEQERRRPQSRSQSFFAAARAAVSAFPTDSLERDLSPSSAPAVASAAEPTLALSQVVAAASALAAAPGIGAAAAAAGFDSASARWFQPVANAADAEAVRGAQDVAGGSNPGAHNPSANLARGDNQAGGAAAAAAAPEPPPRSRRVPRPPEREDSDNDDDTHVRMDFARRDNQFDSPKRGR
The assay is described as follows: proximity labelling; PUP-IT: IRS4 (WT)-PafA or IRS4 (YF)-PafA stably expressed in iPup OVCAR-5 cells, doxycycline 2 μg/ml and biotin 4 μM for 24 hr, tagged proteins identified by mass spectrometry, triplicates, LFQ intensity of WT against YF mutants.

No constants are given. Whether binding was seen depends on the method and setting. In cells and extracts the contact can be indirect. These calls come from enrichment with a bait or labelling near it, and not all partners need be listed.

“PIK3R2 (p85β), endogenous in OVCAR-5 cells (from UniProt O00459 1-728)”: the binding result was “binds”.

B1: EBNA1 binding protein 2 (protein, UniProt Q99848 1-306)
chain: MDTPPLSDSESESDESLVTDRELQDAFSRGLLKPGLNVVLEGPKKAVNDVNGLKQCLAEFKRDLEWVERLDVTLGPVPEIGGSEAPAPQNKDQKAVDPEDDFQREMSFYRQAQAAVLAVLPRLHQLKVPTKRPTDYFAEMAKSDLQMQKIRQKLQTKQAAMERSEKAKQLRALRKYGKKVQTEVLQKRQQEKAHMMNAIKKYQKGFSDKLDFLEGDQKPLAQRKKAGAKGQQMRKGPSAKRRYKNQKFGFGGKKKGSKWNTRESYDDVSSFRAKTAHGRGLKRPGKKGSNKRPGKRTREKMKNRTH
As to B1, the binding entry is given as “binds”.
